In publication doi:10.1101/812149:
Results are given in words; binding and its absence hold for the method and conditions named. In cells and extracts the contact can be indirect. Some binding calls cover weakened binding; strength is not graded here.

Amino acid sequences for entries named in this document (tags omitted).
UniProt P43694: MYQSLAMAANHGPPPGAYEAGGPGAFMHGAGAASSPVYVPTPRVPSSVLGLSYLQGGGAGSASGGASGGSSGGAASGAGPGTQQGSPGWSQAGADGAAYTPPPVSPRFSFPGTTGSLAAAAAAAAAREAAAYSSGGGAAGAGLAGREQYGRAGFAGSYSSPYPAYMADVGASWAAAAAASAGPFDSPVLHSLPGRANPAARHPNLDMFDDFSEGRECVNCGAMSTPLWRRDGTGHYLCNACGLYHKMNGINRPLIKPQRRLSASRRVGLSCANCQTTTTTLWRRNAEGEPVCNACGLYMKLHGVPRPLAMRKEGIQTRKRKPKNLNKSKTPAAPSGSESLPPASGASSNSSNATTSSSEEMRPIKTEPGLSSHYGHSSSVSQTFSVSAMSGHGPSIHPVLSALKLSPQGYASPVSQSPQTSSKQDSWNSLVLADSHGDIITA
UniProt Q92908: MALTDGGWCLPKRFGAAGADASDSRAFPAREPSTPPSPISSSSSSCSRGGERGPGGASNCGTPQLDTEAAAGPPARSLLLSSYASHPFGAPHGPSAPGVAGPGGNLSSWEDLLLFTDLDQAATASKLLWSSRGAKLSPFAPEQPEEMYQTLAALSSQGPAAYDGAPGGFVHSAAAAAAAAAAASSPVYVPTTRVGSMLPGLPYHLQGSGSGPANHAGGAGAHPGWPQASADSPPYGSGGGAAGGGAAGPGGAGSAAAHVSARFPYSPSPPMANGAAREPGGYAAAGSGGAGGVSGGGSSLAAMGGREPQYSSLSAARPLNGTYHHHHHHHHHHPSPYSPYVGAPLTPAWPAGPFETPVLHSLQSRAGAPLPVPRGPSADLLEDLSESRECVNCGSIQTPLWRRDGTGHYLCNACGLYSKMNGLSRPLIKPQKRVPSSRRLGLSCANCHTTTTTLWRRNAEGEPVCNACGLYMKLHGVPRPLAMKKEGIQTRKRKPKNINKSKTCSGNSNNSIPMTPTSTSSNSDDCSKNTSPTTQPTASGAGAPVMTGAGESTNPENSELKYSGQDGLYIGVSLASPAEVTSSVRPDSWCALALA
UniProt Q13887: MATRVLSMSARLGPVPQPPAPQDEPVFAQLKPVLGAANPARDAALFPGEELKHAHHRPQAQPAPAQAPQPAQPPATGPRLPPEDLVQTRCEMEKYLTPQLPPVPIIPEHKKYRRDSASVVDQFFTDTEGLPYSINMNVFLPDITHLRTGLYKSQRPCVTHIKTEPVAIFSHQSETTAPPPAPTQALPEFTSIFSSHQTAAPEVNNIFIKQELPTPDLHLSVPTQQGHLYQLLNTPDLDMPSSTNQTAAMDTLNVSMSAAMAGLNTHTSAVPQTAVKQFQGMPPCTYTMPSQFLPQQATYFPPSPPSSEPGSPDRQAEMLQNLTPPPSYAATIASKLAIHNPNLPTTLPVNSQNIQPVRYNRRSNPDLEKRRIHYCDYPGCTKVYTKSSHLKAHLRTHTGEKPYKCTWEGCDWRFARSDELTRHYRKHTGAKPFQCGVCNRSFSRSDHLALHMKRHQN

How the values were obtained:
[1] = molecular target: GATA4 (human (endogenous in Eso26)) (UniProt P43694); test: co-IP
[2] = molecular target: GATA6 (human (endogenous in Eso26)) (UniProt Q92908); test: co-IP

Substance	binding [1]	binding [2]
GATA6 (from UniProt Q92908 1-595)	binds	–
KLF5 (from UniProt Q13887 1-457)	binds	binds
